These results are taken from PMC9701222, “Molecular basis for DNA recognition by the maternal pioneer transcription factor FoxH1”.

The target in one data set is T1, hFoxA2 FH (Homo sapiens) (UniProt Q9Y261).
T1 sequence (looked up): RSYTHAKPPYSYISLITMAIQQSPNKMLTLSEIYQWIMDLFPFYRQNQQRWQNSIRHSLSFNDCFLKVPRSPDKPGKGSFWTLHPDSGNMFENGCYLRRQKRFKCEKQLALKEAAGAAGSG
Briefly: DSF. To be noted: Tm 46.6 free, recombinant protein, residues 153-273, protein details: His-SUMO removed (Ulp1).

The target of a further data set is T2, dFoxH1 FH (Danio rerio) (UniProt Q9I9E1).
T2 sequence (looked up): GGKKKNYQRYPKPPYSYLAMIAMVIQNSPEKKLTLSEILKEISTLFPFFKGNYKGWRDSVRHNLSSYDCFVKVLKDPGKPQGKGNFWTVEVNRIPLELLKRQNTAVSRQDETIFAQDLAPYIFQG
Briefly: DSF. To be noted: Tm 40.7 free, recombinant protein, residues 86-210, protein details: His-SUMO removed (Ulp1).

For at least one entry, the source does not settle the construct or the ends of the probe. The direction of at least one scale is not stated here. Protein sequences can lack the tags named with them.

For “AGATTGTGTATTGAGA (double strand) [dGSC-GT-16a]”, the binding signal with hFoxA2 FH (Homo sapiens) (50.8 bound) is 4.2 C (delta Tm); in the data set with dFoxH1 FH (Danio rerio) (61.1 bound), 20.4 C (delta Tm).
With “AGATTGTTTACTGAGA (double strand) [FKH-TTACT-GSCflank]”, the binding signal with hFoxA2 FH (Homo sapiens) (56.4 bound) is 9.8 C (delta Tm); in the data set with dFoxH1 FH (Danio rerio) (57.4 bound) it was 16.7 C (delta Tm).
In the case of “AGATTGTTTATTGAGA (double strand) [dGSC-TT-16a]”, the figures for the binding signal with hFoxA2 FH (Homo sapiens) (54.4 bound) and in the data set with dFoxH1 FH (Danio rerio) (59.9 bound) were 7.8 C (delta Tm) and 19.2 C (delta Tm), respectively.
